Experimental findings from paper PMC8384837 are described below.

Holding throughout (details): yeast three-hybrid, YBZ-1, SC-Leu-His + 0.5 mM 3-AT, 4 days
The target of assay [1] is T1, PUM1 PUF domain R6-IWS N1043I + Y1044W + Q1047S (UniProt Q14671).
T1 sequence: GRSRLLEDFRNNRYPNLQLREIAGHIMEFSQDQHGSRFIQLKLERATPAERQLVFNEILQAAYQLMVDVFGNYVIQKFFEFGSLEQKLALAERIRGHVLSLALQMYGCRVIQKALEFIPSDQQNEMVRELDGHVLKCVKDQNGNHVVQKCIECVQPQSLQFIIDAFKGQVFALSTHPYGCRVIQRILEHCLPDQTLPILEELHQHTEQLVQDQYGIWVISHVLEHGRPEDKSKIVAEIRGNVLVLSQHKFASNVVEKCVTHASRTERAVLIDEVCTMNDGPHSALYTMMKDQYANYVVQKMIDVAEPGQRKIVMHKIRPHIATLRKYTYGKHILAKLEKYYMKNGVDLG

Assay [2] deals with T2, PUM1 PUF domain R6-IYE N1043I + Q1047E (UniProt Q14671).
T2 sequence: T1 sequence with W217Y, S220E

Assay [3] addresses T3, PUM1 PUF domain R6-LFA N1043L + Y1044F + Q1047A (UniProt Q14671).
T3 sequence: T1 sequence with I216L, W217F, S220A

In assay [4] the target is T4, PUM1 PUF domain R6-LFC N1043L + Y1044F + Q1047C (UniProt Q14671).
T4 sequence: T1 sequence with I216L, W217F, S220C

Assay [5] deals with T5, PUM1 PUF domain R6-LFT N1043L + Y1044F + Q1047T (UniProt Q14671).
T5 sequence: T1 sequence with I216L, W217F, S220T

Assay [6] deals with T6, PUM1 PUF domain R6-LWG N1043L + Y1044W + Q1047G (UniProt Q14671).
T6 sequence: T1 sequence with I216L, S220G

Assay [7] deals with T7, PUM1 PUF domain R6-LYC N1043L + Q1047C (UniProt Q14671).
T7 sequence: T1 sequence with I216L, W217Y, S220C

The target of assay [8] is T8, PUM1 PUF domain R6-LYM N1043L + Q1047M (UniProt Q14671).
T8 sequence: T1 sequence with I216L, W217Y, S220M

Assay [9] deals with T9, PUM1 PUF domain R6-LYS N1043L + Q1047S (UniProt Q14671).
T9 sequence: T1 sequence with I216L, W217Y

Assay [10] deals with T10, PUM1 PUF domain R6-MFS N1043M + Y1044F + Q1047S (UniProt Q14671).
T10 sequence: T1 sequence with I216M, W217F

Assay [11] concerns the target T11, PUM1 PUF domain R6-MYG N1043M + Q1047G (UniProt Q14671).
T11 sequence: T1 sequence with I216M, W217Y, S220G

The target of assay [12] is T12, PUM1 PUF domain R6-MYV N1043M + Q1047V (UniProt Q14671).
T12 sequence: T1 sequence with I216M, W217Y, S220V

Assay [13] addresses T13, PUM1 PUF domain R6-NYL Q1047L (UniProt Q14671).
T13 sequence: T1 sequence with I216N, W217Y, S220L

In assay [14] the target is T14, PUM1 PUF domain R6-RFV N1043R + Y1044F + Q1047V (UniProt Q14671).
T14 sequence: T1 sequence with I216R, W217F, S220V

The target in assay [15] is T15, PUM1 PUF domain R6-RHS N1043R + Y1044H + Q1047S (UniProt Q14671).
T15 sequence: T1 sequence with I216R, W217H

In assay [16] the target is T16, PUM1 PUF domain R6-RWL N1043R + Y1044W + Q1047L (UniProt Q14671).
T16 sequence: T1 sequence with I216R, S220L

The target in assay [17] is T17, PUM1 PUF domain R6-RWV N1043R + Y1044W + Q1047V (UniProt Q14671).
T17 sequence: T1 sequence with I216R, S220V

Assay [18] addresses T18, PUM1 PUF domain R6-RYL N1043R + Q1047L (UniProt Q14671).
T18 sequence: T1 sequence with I216R, W217Y, S220L

The target of assay [19] is T19, PUM1 PUF domain R6-SFA N1043S + Y1044F + Q1047A (UniProt Q14671).
T19 sequence: T1 sequence with I216S, W217F, S220A

Assay [20] deals with T20, PUM1 PUF domain R6-SRD N1043S + Y1044R + Q1047D (UniProt Q14671).
T20 sequence: T1 sequence with I216S, W217R, S220D

Positions count from the first letter of the chain named. The list shows a part of the results. At the low end of the ranking the order means little. Some results are limits rather than exact numbers.

With “GGCUAGAACUAGUGGAUCCCCCGGCGCCCGGCGGCUCGAGCCCGGGUAAGUGCAAAUAGUCUGCAUGCCGCCGGGCGCCAUGCCUGCAGGUCGACUCUAGAAAACAUG”, the binding signal (log2 enrichment (interaction score)) was < -7.06 in assay [1]; < -6.55 in assay [2]; < -8.68 in assay [3]; < -7.31 in assay [4]; < -7.13 in assay [5]; < -8.11 in assay [6]. The binding signal (log2 enrichment (interaction score)) is < -7.41 in assay [7]; < -6.91 in [8]; < -7.54 in [9]; < -6.36 in assay [10]; < -7.16 in assay [11]; < -6.58 in assay [12]. Besides, the binding signal (log2 enrichment (interaction score)) in [13] was < -6.56; in assay [14], < -7.3; in assay [15], < -7.54; in assay [16], < -6.15; in assay [17], < -6.32; in assay [18] it was < -7.61. Besides, the binding signal (log2 enrichment (interaction score)) in assay [19] is < -7.78; in assay [20] it was < -7.15.
